This note sets out measurements from article PMC7862700.

The list shows a part of the results. The source does not settle which construct or isoform was used.

This experiment deals with T1, ELF2 (UniProt Q15723).
T1 sequence: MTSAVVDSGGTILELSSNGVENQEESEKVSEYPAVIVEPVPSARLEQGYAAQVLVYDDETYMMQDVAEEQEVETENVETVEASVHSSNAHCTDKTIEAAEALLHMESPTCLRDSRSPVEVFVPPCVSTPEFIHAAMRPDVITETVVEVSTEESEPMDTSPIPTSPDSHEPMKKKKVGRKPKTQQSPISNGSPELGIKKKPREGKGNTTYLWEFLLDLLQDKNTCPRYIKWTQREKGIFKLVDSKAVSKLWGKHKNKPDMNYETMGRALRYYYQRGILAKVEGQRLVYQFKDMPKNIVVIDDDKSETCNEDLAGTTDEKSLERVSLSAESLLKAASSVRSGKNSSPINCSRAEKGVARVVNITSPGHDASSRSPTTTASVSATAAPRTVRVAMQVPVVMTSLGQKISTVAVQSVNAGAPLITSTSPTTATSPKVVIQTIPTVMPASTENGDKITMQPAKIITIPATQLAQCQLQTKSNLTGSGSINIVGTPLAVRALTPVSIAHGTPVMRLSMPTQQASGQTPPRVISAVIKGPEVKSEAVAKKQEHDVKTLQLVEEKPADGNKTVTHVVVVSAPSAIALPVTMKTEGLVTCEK
As to the kind of experiment: DAPPL (digital affinity profiling via proximity ligation, sequencing). As to conditions: 10 mM Tris-HCl pH 7.5, 50 mM NaCl, 1 mM DTT, 4% glycerol, room temperature, 30 min; GST-TFs on glutathione beads, 16-mer random dsDNA library, 0.1% …; high values mean tight binding; double strand, one strand shown; scale: fold enrichment (6-mer frequency, TF over GST control).
Consider TCTGTG, for which the binding signal came to 1.07.

Turning to ACTATC, the binding signal came out at 1.1.

As to GAAGTA, the binding signal was 2.69.

AATCGT displayed a binding signal of 0.846.

Sequence TTGTTT gave a binding signal of 1.47.

TTTTCG registered a binding signal of 1.16.

As for AATGGA, the binding signal came out at 1.02.

Take TTTTTC: the binding signal turned out to be 1.28.

TCAAGA showed a binding signal of 0.809.

In turn, AAGCTA displayed a binding signal of 1.13.

As to TCCTAG, the binding signal turned out to be 1.31.

CATTAT returned a binding signal of 1.15.

With GGTCTC, the binding signal came to 2.16.

On to CTAGTA, for which the binding signal was found to be 1.06.

As for CGTCTG, the binding signal is 0.951.

TCTCTT displayed a binding signal of 1.47.

The sequence AATCTG registered a binding signal of 1.38.

Sequence GGCTTT gave a binding signal of 0.941.

GCTTCT displayed a binding signal of 1.52.

AATCCA came in with a binding signal of 1.06.

In the case of CGTACA, the binding signal was 1.15.

Sequence TATGTG displayed a binding signal of 1.06.

In turn, AACTCA yielded a binding signal of 1.21.

The sequence ATGCTC displayed a binding signal of 1.26.

Sequence TCTCCT displayed a binding signal of 1.44.

In turn, GATCAA had a binding signal of 0.933.

In turn, GACTTA showed a binding signal of 0.945.

In turn, CTAGAC came in with a binding signal of 0.903.

Turning to TGTATG, the binding signal came to 1.19.

Sequence TCGAAG gave a binding signal of 0.837.

Sequence CTTAGC returned a binding signal of 1.17.

The sequence TCCACT had a binding signal of 1.46.

GGCATT had a binding signal of 1.06.

TTGGTA: the binding signal came out at 1.17.

Take AGAAGG: the binding signal was 0.707.

For the sequence GGCTTA, the binding signal was 1.02.

As for CACCTT, the binding signal was 1.24.

The sequence AGCGAT showed a binding signal of 1.01.

GTTACT showed a binding signal of 1.23.

TGACCA came in with a binding signal of 1.19.
